Paper PMC5171658
No constants are given. Whether binding was seen depends on the method and setting. Sequences can lack the tags named with a protein.

Target: T1, PHYTOCHROME … FACTOR4 (PIF4), yeast two-hybrid fusion (Arabidopsis thaliana) (UniProt Q8W2F3)
T1 sequence: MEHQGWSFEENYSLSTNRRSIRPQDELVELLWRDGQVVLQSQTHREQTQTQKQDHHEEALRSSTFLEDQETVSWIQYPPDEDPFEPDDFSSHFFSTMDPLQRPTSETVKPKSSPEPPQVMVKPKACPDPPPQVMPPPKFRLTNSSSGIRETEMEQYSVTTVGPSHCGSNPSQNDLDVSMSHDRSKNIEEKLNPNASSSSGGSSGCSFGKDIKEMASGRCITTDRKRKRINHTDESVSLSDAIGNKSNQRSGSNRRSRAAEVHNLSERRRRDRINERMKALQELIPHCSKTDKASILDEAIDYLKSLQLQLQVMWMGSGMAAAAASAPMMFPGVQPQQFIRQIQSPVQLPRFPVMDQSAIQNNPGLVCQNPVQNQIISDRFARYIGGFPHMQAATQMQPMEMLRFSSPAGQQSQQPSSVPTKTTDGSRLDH
Assay: two-hybrid; yeast AH109 co-transformed with pGADT7 and pGBKT7 constructs; growth on synthetic dropout medium without histidine with 1 or 5 mM 3-amino-1,2,4-triazole

binding, no binding:
PRR9, yeast two-hybrid fusion (Arabidopsis thaliana)
PRR7, yeast two-hybrid fusion (Arabidopsis thaliana)
PRR3, yeast two-hybrid fusion (Arabidopsis thaliana)
